## Library screen at single concentrations

The values are deposited in ChEMBL (CHEMBL3988442, “University of Dundee, Small-Polar-MMV Screening Library” (2021)).

T. brucei: 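Whole-parasite assay of Trypanosoma brucei over 72 hours; the read-out is not stated. Compounds at 30 µM. Higher reads as stronger inhibition (inferred: compounds with an IC50 in retests scored well above the rest). Values scatter widely below zero; nearly all retest evidence comes from the higher of the two concentrations used. Of about 64,000 compounds tested this way, about 940 (1.5%) reached 50% or more in at least one test.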
Toxoplasma: 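Assay of Toxoplasma gondii numbers, read through their beta-galactosidase reporter with a colour substrate. Compounds at 10 µM. Higher reads as fewer parasites (inferred from which compounds were picked for retests). About 67,000 compounds were tested under these conditions; 0.38% (about 260) showed 50% or more at least once.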

Results are given as percent effect. The controls that fix the scale are not given in the record; negative values are as filed. The compounds are a random part of those screened.

NC(=O)C1=NN2C(=NS(=O)(=O)c3ccccc32)N1 read T. brucei: -35.23%; Toxoplasma: 3.563%.
c1ccc(CN2CCC(NCCc3ccc4c(c3)CCO4)CC2)nc1 read T. brucei: -36.38%; Toxoplasma: -55.64%.
NC(=O)C1CCN(CCc2ccc(NCc3cccnc3)cc2)CC1 read T. brucei: 18.61%; Toxoplasma: 1.593%.
CC(C)(CCS(C)(=O)=O)CNc1ccc2ccc(F)cc2n1 read T. brucei: -13.68%; Toxoplasma: 0.1604%.
O=C(c1noc2c1CCCC2)N1CCCC(c2nccs2)C1 (centres unmarked) read T. brucei: -5.687%; Toxoplasma: 15.47%.
CN1C(=N)NC(=O)/C1=C/c1ccc(-c2ccc(Br)cc2)o1 read T. brucei: -57.9%; Toxoplasma: 2.737%.
COc1cc(C(C)=O)ccc1OC12CCCN(CC1)C2 (centres unmarked) read T. brucei: -47.05%; Toxoplasma: 24.51%.
O=C1NC2(CCN(C(=O)Cc3ccsc3)CC2)CC1c1ccncc1 (centres unmarked) read T. brucei: 5.641%; Toxoplasma: -2.882%.
CCOc1cc(C)nc(N2CCN(C(=O)C(C)NC(C)=O)CC2)n1 (centres unmarked) read T. brucei: -23.01%; Toxoplasma: -0.9253%.
Cc1nc(C)n(CC2CN(CCOc3cccc(C#N)c3)CCO2)n1 (centres unmarked) read T. brucei: 9.086%; Toxoplasma: 2.782%.
O=C(NCc1cccs1)NCC1(O)CCc2ccccc2C1 (centres unmarked) read T. brucei: -23.69%; Toxoplasma: 1.69%.
CN(Cc1nc(Cc2cccc(C(F)(F)F)c2)no1)C1CCOCC1 read T. brucei: -13.88%; Toxoplasma: 5.08%.
CCCc1nncn1-c1cc(OC)ccc1OC read T. brucei: -8.381%; Toxoplasma: -8.141%.
CC(CO)NS(=O)(=O)c1cccc(C(C)C)c1 (centres unmarked) read T. brucei: -0.975%; Toxoplasma: 6.511%.
COc1cc2nc3n(c(=O)c2cc1OC)CCN(C)CC3 read T. brucei: -24.04%; Toxoplasma: 12.36%.
CCOCC1CN(Cc2ccco2)Cc2nccn2C1.O=C(O)C(F)(F)F (centres unmarked) read T. brucei: -53.99%; Toxoplasma: -0.09091%.
Cn1ncc2c(N3CC[C@H](O)C3)nc(-c3ccncc3)nc21 read T. brucei: 1.936%; Toxoplasma: -19.08%.
Cn1cccc1-c1cc(C(=O)NCCCc2csc(N)n2)[nH]n1 read T. brucei: -21.84%; Toxoplasma: 7.669%.
Cn1c(NCCC(=O)N2CCCC2)c(C#N)c(=O)n(C)c1=O read T. brucei: -49.94%; Toxoplasma: -21.27%.
O=C(O)C(F)(F)F.[H][C@]12CN(c3ccccc3)C(=O)[C@@]1([H])CN(C1CCOC1)C2 (some centres unmarked) read T. brucei: -25.32%; Toxoplasma: -2.032%.
CN1CCOC(CNC(=O)CCCOc2ccccc2F)C1 (centres unmarked) read T. brucei: -41.09%; Toxoplasma: -16.77%.
Cn1cc(C(=O)Nc2ccc(CN3CCOCC3)cn2)cn1 read T. brucei: -0.9446%; Toxoplasma: 0%.
COc1ccc2c(c1)C(C(=O)NCCN1CCNC1=O)CC(=O)N2 (centres unmarked) read T. brucei: -34.05%; Toxoplasma: 23.88%.
CN(C)c1ccc2c(c1)CN(C(=O)c1ccnnc1)C2c1cnco1 (centres unmarked) read T. brucei: -61.36%; Toxoplasma: -2.926%.
Cc1cc(NC(=O)N2CCN(C)CC2C)n(C(C)(C)C)n1 (centres unmarked) read T. brucei: -22%; Toxoplasma: -3.919%.
CN(CC1(CO)CCCC1)[C@@H]1c2ccccc2C2(CCNCC2)[C@H]1O read T. brucei: -72.84%; Toxoplasma: 2.806%.
CCc1nnc(CN(C)c2nccc(N3CCCC(O)C3)n2)o1 (centres unmarked) read T. brucei: -7.686%; Toxoplasma: -1.123%.
CN(C)CC1(O)CCCN(C(=O)c2ccccc2-n2cccn2)C1 (centres unmarked) read T. brucei: -29.06%; Toxoplasma: -5.352%.
O=C(c1ccc[nH]1)N1CCCn2c(CN3CCCCC3)nnc2C1 read T. brucei: -96.33%; Toxoplasma: -9.684%.
CNC(=O)c1noc(CN2CC[C@](C)(O)[C@H](C)C2)n1 read T. brucei: -68.93%; Toxoplasma: -35.15%.
Cc1nc(Nc2nncs2)cc(C2CNC2)n1.O=C(O)C(F)(F)F read T. brucei: -21.99%; Toxoplasma: 3.02%.
Clc1ccccc1C1(c2ccnc(C3CC3)n2)CCNCC1 read T. brucei: -58.64%; Toxoplasma: 61.01%.
CCC(NC(=O)c1ccc2[nH]ccc2c1)C(=O)N1CCOCC1 (centres unmarked) read T. brucei: -49.54%; Toxoplasma: 4.74%.
[H][C@@]12CCN(C(=O)CCc3ccccc3Cl)C[C@]1(COC)CCO2 read T. brucei: -5.555%; Toxoplasma: -1.183%.
COc1ccccc1CC(=O)N1CCCC1Cn1nc(C)cc1C (centres unmarked) read T. brucei: -22.46%; Toxoplasma: 11.74%.
CCn1cc(CN(C)S(=O)(=O)c2ccc(NC(C)=O)cc2)cn1 read T. brucei: -18.53%; Toxoplasma: -9.683%.
CCCc1nnc(N2CCCC(c3nnc(Cn4ccnc4)n3C)C2)s1 (centres unmarked) read T. brucei: -50.88%; Toxoplasma: -4.464%.
CC(C)Cc1cc(CNC(=O)c2cccc3c2NCCC3)no1 read T. brucei: -65.87%; Toxoplasma: -33.14%.

For reference, 3 entries once more:

- CC(CO)NS(=O)(=O)c1cccc(C(C)C)c1 (centres unmarked) | T. brucei: -0.975%; Toxoplasma: 6.511%
- CN(C)c1ccc2c(c1)CN(C(=O)c1ccnnc1)C2c1cnco1 (centres unmarked) | T. brucei: -61.36%; Toxoplasma: -2.926%
- COc1cc(C(C)=O)ccc1OC12CCCN(CC1)C2 (centres unmarked) | T. brucei: -47.05%; Toxoplasma: 24.51%